The text below walks through data of publication PMC12548414.

About 20 (1%) of roughly 1,600 compounds showed an effect of 50% or more. The list shows a part of the results.

The test deals with T1, E. coli pLC1021 (luc-trpAt trans-translation reporter).
T1 construct: pLC1021 luc-trpAt reporter strain
More on the design: species or system Escherichia coli pLC1021; luc-trpAt non-stop luciferase reporter; luminescence rises when trans-translation is inhibited; normalized to KKL-35 and DMSO. To be noted: reporter signal, KKL-35 = 100%; rise means trans-translation inhibition; 2 h, 20 µM. Summed up: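 Luminescence (560 nm, 10 min after Bright-Glo) reports luciferase that escapes trans-translation tagging, measured after 2 h room-temperature treatment with 20 µM compound. Each plate was scaled between DMSO (negative) and 20 µM KKL-35 (positive) controls. Compounds scoring one standard deviation above the median counted as positive; at least two biological repeats.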
`CCOc1cc(CNCCO)cc(Br)c1OCc1ccc(Cl)cc1Cl` [KKL-1565]: the “% activation” value came to 0%.

With `Cc1cc(C(=O)NCC23CC4CC(CC(C4)C2)C3)ccc1[N+](=O)[O-]` [KKL-1425], the “% activation” value is given as 0%.

With `c1csc(Cc2nn3c(-c4n[nH]c5c4CCC5)nnc3s2)c1` [KKL-1674], the “% activation” value was determined as 0%.

Take `CCOc1cc(CNC(C)C23CC4CC(CC(C4)C2)C3)cc(Cl)c1OCC(=O)NC(C)(C)C` (centres unmarked) [KKL-1582]: the “% activation” value is 0%.

Regarding `O=C(Cn1nc2c(cc1=O)CCc1nc(N3CCCCC3)ncc1-2)OC1CCCCC1` [KKL-0682], the “% activation” value is recorded as 0%.

Turning to `O=C(NC1=NCCS1)c1sc2cc(F)ccc2c1Cl` [KKL-1703], the “% activation” value came to 0%.

Consider `CCOC(=O)c1ccc(NC(S)=Nc2ccc(F)c(Cl)c2)cc1` [KKL-1537], for which the “% activation” value is reported as 0%.

As to `Cc1cc(NCc2ccccn2)n2ncc(-c3ccccc3)c2n1` [KKL-0947], the “% activation” value stood at 0%.

Regarding `COc1ccc(Cn2c(=O)c3c(n4cnnc24)-c2ccccc2CC32CCCCC2)cc1` [KKL-0716], the “% activation” value was 13%.

For `Cc1cc(C(=O)Oc2ccc(Cc3ccccc3)cc2)ccc1[N+](=O)[O-]` [KKL-0290], the “% activation” value amounted to 0%.

For the compound `CC(C)(C)c1ccc(C(=O)NC(=S)Nc2ccc(C(=O)O)cc2)cc1` [KKL-1314], the “% activation” value was determined as 0%.

With `Cc1nn(C)c(C)c1-c1cc(C(=O)NCCCc2ccc(F)cc2)[nH]n1` [KKL-0705], the “% activation” value came to 2%.

Regarding `CCOC(=O)C(Oc1ccc2oc(C)c(C(=O)OC)c2c1)c1ccccc1` (centres unmarked) [KKL-0300], the “% activation” value is given as 0%.

`O=C(/C=C/c1ccc(Cl)cc1)c1cccnc1` [KKL-0393]: the “% activation” value is listed as 0%.

Consider `C[C@@H]1C(=O)O[C@H]2[C@H]1CC[C@@]1(C)Cc3sc(NC(=O)Nc4ccc(F)cc4F)nc3[C@@H](C)[C@H]21` [KKL-0550], for which the “% activation” value was 0%.

In the case of `COc1ccc(C(=O)Oc2ccc(C(=O)OCc3ccccc3)cc2)cc1OC` [KKL-1541], the “% activation” value is listed as 0%.

Take `CCOC(=O)c1cnc(-n2nc(C)cc2C)nc1NCCc1ccccc1` [KKL-0998]: the “% activation” value was 10%.

`Cc1nn(-c2nc3ccccc3[nH]2)c(N)c1-c1ccccc1` [KKL-1566]: the “% activation” value is reported as 0%.

Take `CCOC(=O)Cn1nnc(-c2ccc(OCc3ccccc3F)cc2)n1` [KKL-1264]: the “% activation” value came to 0%.

Take `CN(C(=O)c1c[nH]nc1-c1ccc(CNC(=O)c2cccc(Cl)c2)cc1)c1ccccc1` [KKL-1349]: the “% activation” value amounted to 4%.

Turning to `CCOC(=O)C1(CCOC)CCN(Cc2ccc(N(C)c3ccccc3)cc2)CC1` [KKL-0619], the “% activation” value was 2%.

As for `COc1ccc(CCNC(=O)c2c(C)nc3ccccn23)cc1` [KKL-1746], the “% activation” value was found to be 14%.

As to `CC(NC(=O)NNC(=O)c1ccncc1)(C(F)(F)F)C(F)(F)F` [KKL-0591], the “% activation” value was found to be 0%.

As for `CCC(C)Oc1ccc(C(=O)NC(=S)Nc2ccc3c(c2)COC3=O)cc1` (centres unmarked) [KKL-1429], the “% activation” value is 0%.

Take `COc1ccc(-c2n(C)c3ccccc3[n+]2CC(=O)OC2CC(C)CCC2C(C)C)cc1` (centres unmarked) [KKL-1662]: the “% activation” value is recorded as 0%.

In the case of `COC(=O)c1cc(NC(=O)Nc2cccc(Cl)c2)cc(C(=O)OC)c1` [KKL-1351], the “% activation” value was determined as 6%.

Take `CC1=CC(C)(C)Nc2ccc(OC(=O)c3cccs3)cc21` [KKL-0410]: the “% activation” value was 0%.

Take `COc1ccc(-c2cc(C(=O)N3C[C@H](C)N(Cc4ccco4)C[C@@H]3C)no2)cc1` [KKL-0930]: the “% activation” value worked out at 0%.

Turning to `O=C(Nc1nc(-c2ccc3c(c2)CCO3)cs1)c1cccc(Cn2cncn2)c1` [KKL-1224], the “% activation” value was found to be 0%.

Regarding `COC(=O)C(CC(C)C)NC(=O)/C=C/c1ccccc1Cl` (centres unmarked) [KKL-1105], the “% activation” value is 0%.

Take `Cc1ccc(C(=O)Nc2nc(-c3ccccn3)cs2)s1` [KKL-1686]: the “% activation” value was determined as 12%.

As for `Cc1ccc(NC2CCCN(C3CSCCSC3)C2)cc1C` (centres unmarked) [KKL-0318], the “% activation” value came to 6%.

In the case of `Cc1ccc(-n2cc(CN(C)Cc3cc(C)[nH]n3)c(-c3ccc(F)cc3)n2)cc1` [KKL-0319], the “% activation” value is 0%.

Regarding `CCOC(=O)/C(C#N)=C/c1ccc(-c2ccc(F)cc2)o1` [KKL-0788], the “% activation” value is 0%.

Turning to `CN(C)CCCNc1cc(C(C)(C)C)nc2c(-c3ccccc3)cnn12` [KKL-0371], the “% activation” value stood at 0%.

With `O=C(Nc1ccccc1-c1ccccc1)C(Cl)(Cl)Cl` [KKL-0736], the “% activation” value is given as 0%.

On to `CC1(C)C=Cc2c(nc3ccccc3c2NCc2ccccc2)C1` [KKL-0785], for which the “% activation” value turned out to be 0%.

For the compound `CC(Nc1nc(N2CCN(C(=O)c3ccc(Cl)cc3)CC2)nc2ccccc12)c1ccccc1` (centres unmarked) [KKL-1529], the “% activation” value is recorded as 4%.

For the compound `O=C(CSc1n[nH]c(-c2ccc(Cl)cc2)n1)Nc1ccc(F)c(Cl)c1` [KKL-1524], the “% activation” value is given as 0%.

Regarding `O=C1c2cccc3c(N4CCOCC4)c([N+](=O)[O-])cc(c23)C(=O)N1c1cccc2ccccc12` [KKL-1087], the “% activation” value is given as 0%.

As to `Cc1cc(C)cc(COc2ccc3c(C)c(CCC(=O)O)c(=O)oc3c2C)c1` [KKL-1546], the “% activation” value was determined as 0%.

For the compound `CCC(C)NCCOc1ccc(C(C)(C)c2ccccc2)cc1` (centres unmarked) [KKL-1489], the “% activation” value is 1%.

For `CCCOC(=O)COc1ccc2c(=O)c(-c3ccccc3OC)coc2c1` [KKL-1880], the “% activation” value is on record as 4%.

Consider `Cc1ccc(S(=O)(=O)Nc2ccc(NC(=O)Nc3cccc(C(F)(F)F)c3)cc2)cc1` [KKL-1329], for which the “% activation” value is reported as 0%.

Take `O=C(/C=C/c1cc([N+](=O)[O-])ccc1O)c1ccc(Cl)cc1` [KKL-0296]: the “% activation” value turned out to be 0%.

For the compound `O=C(/C=C/c1cn(CC(O)CN2CCCCC2)c2ccccc12)c1ccccc1` (centres unmarked) [KKL-1210], the “% activation” value was 0%.

Regarding `COC(=O)[C@@H]1Cc2c([nH]c3ccccc23)[C@H]2C[C@@H](N3CCOCC3)C[C@@H](c3ccc(Cl)c(F)c3)N21` [KKL-0305], the “% activation” value amounted to 0%.

For `CCC(CC)C(=O)N1CCCC(C(=O)Nc2cccc(-c3ccc(F)cc3)c2)C1` (centres unmarked) [KKL-0490], the “% activation” value came out at 3%.

In the case of `Cc1nn(-c2ccc([N+](=O)[O-])cc2)c(C)c1N1C(=O)c2cccc3cc(Br)cc(c23)C1=O` [KKL-0425], the “% activation” value is recorded as 0%.

Consider `C#CCOc1cccc(CN2CCc3[nH]c4ccc(OCC)cc4c3C2)c1` [KKL-0460], for which the “% activation” value is listed as 26%.

Consider `CCc1ccc(C=c2sc(=CC(=O)C(C)(C)C)[nH]c2=O)cc1` [KKL-0793], for which the “% activation” value stood at 0%.

For `Cc1ccc2[nH]c(/C(C#N)=C\c3ccc([N+](=O)[O-])o3)nc2c1` [KKL-1100], the “% activation” value is on record as 0%.

On to `O=C(NC1CCCCC1)N1CCN(Cc2ccc3c(c2)OCO3)CC1` [KKL-1053], for which the “% activation” value is 3%.

As to `O=C(CC12CC3CC(CC(C3)C1)C2)Nc1ccc(F)c(Cl)c1` [KKL-0744], the “% activation” value turned out to be 0%.

Regarding `COc1ccccc1CCCNC(=O)c1cc(-c2c(C)nn(C)c2C)[nH]n1` [KKL-0468], the “% activation” value came out at 0%.

Take `Cc1ccc(-c2csc3nc(SCC(N)=O)n(-c4ccccc4)c(=O)c23)cc1C` [KKL-1411]: the “% activation” value is 0%.

`CCOC(=O)/C=C/C(=O)Nc1nc(-c2ccccc2)cs1` [KKL-1378]: the “% activation” value came to 0%.

Turning to `COc1ccc(CN2CCN(C(=O)CCc3csc(C)n3)CC2)cc1` [KKL-1778], the “% activation” value stood at 0%.

For the compound `N#CCc1ccc(NC(=O)/C=C/c2ccc([N+](=O)[O-])o2)cc1` [KKL-1204], the “% activation” value is given as 0%.

Turning to `Cc1nc2cc(OCc3cc(C(=O)N4CCCC(c5ccccc5)C4)no3)ccc2s1` (centres unmarked) [KKL-1111], the “% activation” value was found to be 2%.

In the case of `COC(=O)COc1ccc(C2CCCCC2)cc1` [KKL-1303], the “% activation” value stood at 0%.

In the case of `CC(=O)N1CCN(c2ccc(NC(=S)NC(=O)c3cc4ccccc4o3)cc2)CC1` [KKL-1376], the “% activation” value was 0%.

Consider `COc1ccc(OC(C)C(=O)Nc2ccc(Cl)cc2C)cc1` (centres unmarked) [KKL-1555], for which the “% activation” value is recorded as 4%.

As for `COC(=O)COc1ccc2c(=O)c(-c3ccccc3OC)coc2c1` [KKL-1134], the “% activation” value is 3%.

For `COc1ccc(-c2cc3ncccc3c(NCCNC(=O)c3scnc3C)n2)cc1` [KKL-1255], the “% activation” value was 0%.

For `CCOC(=O)C1(Cc2ccc(Cl)cc2)CCN(C(=O)Nc2ccc(SC)cc2)CC1` [KKL-0519], the “% activation” value is 2%.

For `Cc1nn2c(N3CCN(C)CC3)cc(C(C)(C)C)nc2c1-c1ccccc1` [KKL-0881], the “% activation” value was found to be 0%.

`Cc1cnc(N2CCN[C@@H](Cc3ccccc3)C2)nc1Oc1ccc(-n2ccnc2)cc1` [KKL-1724]: the “% activation” value was 6%.

For the compound `Fc1ccc(Nc2nc(-c3ccccn3)cs2)cc1` [KKL-0715], the “% activation” value was 18%.

Consider `COc1ccc(C2(C(=O)Nc3ccc(Br)cc3)CCCC2)cc1` [KKL-1576], for which the “% activation” value is on record as 0%.

On to `Cc1ccccc1CN1CC[C@@H]2[C@H](C1)[C@@H](c1ccc(F)cc1)CN2C(=O)C(C)C` [KKL-1218], for which the “% activation” value was found to be 2%.

As for `COc1ccc(-c2cnnc(NCCc3cccnc3)n2)cc1` [KKL-0647], the “% activation” value was 2%.

With `CN(CCn1ccnc1)Cc1cn(Cc2ccccc2)nc1-c1cc2ccccc2o1` [KKL-0649], the “% activation” value is on record as 0%.

Turning to `CC(NC(=O)Nc1cccc(C(F)(F)F)c1)C1CC2CCC1C2` (centres unmarked) [KKL-1545], the “% activation” value is 0%.

In the case of `Cc1ccc(NC(=O)C2OCOc3ccccc32)cc1N1CCCCC1` (centres unmarked) [KKL-0697], the “% activation” value stood at 0%.

As to `Cc1nn(-c2nc(-c3ccc(Cl)cc3)cs2)c(O)c1N=Nc1ccc(O)cc1` [KKL-1107], the “% activation” value is given as 4%.

As for `O=C(c1cc(COc2ccc(F)c(F)c2)on1)N1CCCCO1` [KKL-0617], the “% activation” value was found to be 0%.

For `CCOc1ccc(OCc2ccc(C(=O)NNC(=O)c3ccc([N+](=O)[O-])o3)cc2)cc1` [KKL-1790], the “% activation” value is listed as 0%.

As for `CCOC(=O)c1ccc(NC(=O)COc2ccccc2CNCCc2ccccc2)cc1` [KKL-0959], the “% activation” value turned out to be 0%.

For `CCc1c(C)sc(N=C(S)NC2CCN(Cc3ccccc3)CC2)c1C(=O)OC` [KKL-1327], the “% activation” value came out at 0%.

With `COc1cccc(CNC(=O)CCC2CCCN(c3ccnc(SC)n3)C2)c1` (centres unmarked) [KKL-0650], the “% activation” value was 9%.

For the compound `COC(=O)CSc1nc2c(c(-c3ccc(C)o3)c1C#N)CCCC2` [KKL-0895], the “% activation” value was determined as 0%.

`CCOC(=O)c1ccc2nc(C)cc(Nc3ccc(N4CCCCC4)cc3)c2c1` [KKL-0730]: the “% activation” value is listed as 0%.
